Results are given in words; binding and its absence hold for the method and conditions named. For some assays here: In cells and extracts the contact can be indirect. Some results given as binding are weak or reduced against the parent protein; the word gives no strength. For some assays here: Where a sequence is shown, tags or fusion partners need not be part of it.
Assays:
[1] = target: T1, recombinant 6x-His-PfPFD4 (Plasmodium falciparum 3D7 prefoldin subunit 4) (Plasmodium falciparum 3D7) (UniProt Q8I3A4); assay: ELISA
T1 sequence: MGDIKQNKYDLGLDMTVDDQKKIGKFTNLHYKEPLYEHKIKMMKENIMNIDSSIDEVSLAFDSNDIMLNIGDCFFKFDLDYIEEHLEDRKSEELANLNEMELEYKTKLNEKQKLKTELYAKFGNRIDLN

By UniProt entry, the sequences of proteins in these tests, tags left out. Residues count along the entry.
UniProt Q6ZLZ9: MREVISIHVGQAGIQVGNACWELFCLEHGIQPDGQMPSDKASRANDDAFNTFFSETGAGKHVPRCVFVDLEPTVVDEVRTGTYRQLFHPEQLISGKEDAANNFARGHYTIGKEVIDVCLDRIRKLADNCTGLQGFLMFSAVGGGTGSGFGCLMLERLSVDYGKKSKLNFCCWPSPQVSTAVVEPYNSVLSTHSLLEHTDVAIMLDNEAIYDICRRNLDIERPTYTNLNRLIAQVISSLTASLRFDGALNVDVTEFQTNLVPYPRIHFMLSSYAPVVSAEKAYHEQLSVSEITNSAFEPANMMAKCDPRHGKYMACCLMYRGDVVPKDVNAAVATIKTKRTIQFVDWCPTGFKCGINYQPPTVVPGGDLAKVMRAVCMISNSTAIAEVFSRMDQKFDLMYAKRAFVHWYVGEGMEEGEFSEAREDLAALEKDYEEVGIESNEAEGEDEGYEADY
UniProt Q8I0U8, residues 20-1694: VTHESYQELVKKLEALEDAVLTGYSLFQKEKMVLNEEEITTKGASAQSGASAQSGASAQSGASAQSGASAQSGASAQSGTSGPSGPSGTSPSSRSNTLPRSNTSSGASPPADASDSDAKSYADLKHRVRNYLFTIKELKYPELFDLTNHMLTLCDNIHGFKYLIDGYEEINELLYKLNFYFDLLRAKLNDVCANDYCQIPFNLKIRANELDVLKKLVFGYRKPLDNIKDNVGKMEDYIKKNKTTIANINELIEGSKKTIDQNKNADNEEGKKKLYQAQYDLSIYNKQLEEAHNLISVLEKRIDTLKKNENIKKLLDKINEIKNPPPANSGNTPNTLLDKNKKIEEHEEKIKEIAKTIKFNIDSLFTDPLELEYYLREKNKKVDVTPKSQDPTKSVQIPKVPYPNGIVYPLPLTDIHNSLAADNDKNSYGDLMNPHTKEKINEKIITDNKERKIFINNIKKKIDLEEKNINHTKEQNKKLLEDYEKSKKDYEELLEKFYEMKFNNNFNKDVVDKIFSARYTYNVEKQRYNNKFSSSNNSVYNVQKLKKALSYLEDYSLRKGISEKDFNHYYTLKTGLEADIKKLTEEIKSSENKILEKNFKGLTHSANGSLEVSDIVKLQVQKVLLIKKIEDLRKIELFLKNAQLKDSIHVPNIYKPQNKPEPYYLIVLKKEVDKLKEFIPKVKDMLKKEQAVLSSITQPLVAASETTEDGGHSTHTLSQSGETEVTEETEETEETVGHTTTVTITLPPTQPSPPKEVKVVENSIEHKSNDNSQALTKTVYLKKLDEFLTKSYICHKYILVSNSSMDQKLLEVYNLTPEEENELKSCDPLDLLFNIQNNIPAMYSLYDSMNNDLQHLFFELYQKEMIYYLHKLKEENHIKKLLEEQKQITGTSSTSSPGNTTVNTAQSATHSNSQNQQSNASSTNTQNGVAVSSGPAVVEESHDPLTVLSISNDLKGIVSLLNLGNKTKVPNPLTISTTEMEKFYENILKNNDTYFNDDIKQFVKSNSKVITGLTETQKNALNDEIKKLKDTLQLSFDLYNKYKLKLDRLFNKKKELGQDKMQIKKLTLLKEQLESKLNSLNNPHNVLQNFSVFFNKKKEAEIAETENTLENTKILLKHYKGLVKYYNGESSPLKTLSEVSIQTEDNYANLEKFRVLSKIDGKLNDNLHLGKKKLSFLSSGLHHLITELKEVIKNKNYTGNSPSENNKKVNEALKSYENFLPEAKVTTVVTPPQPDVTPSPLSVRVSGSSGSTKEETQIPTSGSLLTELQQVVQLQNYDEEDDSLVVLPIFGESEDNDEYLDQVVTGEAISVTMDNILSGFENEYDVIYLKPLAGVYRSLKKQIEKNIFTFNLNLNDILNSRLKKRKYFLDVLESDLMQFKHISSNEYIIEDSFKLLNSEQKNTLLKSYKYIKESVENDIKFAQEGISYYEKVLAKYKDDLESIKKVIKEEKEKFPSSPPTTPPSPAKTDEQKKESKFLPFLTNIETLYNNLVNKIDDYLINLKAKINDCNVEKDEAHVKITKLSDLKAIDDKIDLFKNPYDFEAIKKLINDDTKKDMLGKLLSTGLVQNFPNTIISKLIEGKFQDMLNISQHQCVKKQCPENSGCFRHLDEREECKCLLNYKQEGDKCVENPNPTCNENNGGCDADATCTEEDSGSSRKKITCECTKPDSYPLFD

[2] = target: T2, recombinant 6x-His-PfPFD5 (Plasmodium falciparum 3D7 prefoldin subunit 5) (Plasmodium falciparum 3D7) (UniProt Q8II82); assay: ELISA
T2 sequence (chain, RED-NHS dye label (where it was the labelled partner in MST)): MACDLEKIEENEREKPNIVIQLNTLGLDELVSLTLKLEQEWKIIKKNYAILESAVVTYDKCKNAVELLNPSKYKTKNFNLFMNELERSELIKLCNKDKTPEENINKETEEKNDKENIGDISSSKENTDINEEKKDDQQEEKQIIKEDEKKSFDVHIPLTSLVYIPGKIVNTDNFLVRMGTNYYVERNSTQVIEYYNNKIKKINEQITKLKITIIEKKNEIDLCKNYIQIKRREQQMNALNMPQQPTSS

[3] = target: T3, recombinant 6x-His-PfPFD2 (Plasmodium falciparum 3D7 prefoldin subunit 2) (Plasmodium falciparum 3D7) (UniProt Q8ILS7); assay: ELISA
T3 sequence: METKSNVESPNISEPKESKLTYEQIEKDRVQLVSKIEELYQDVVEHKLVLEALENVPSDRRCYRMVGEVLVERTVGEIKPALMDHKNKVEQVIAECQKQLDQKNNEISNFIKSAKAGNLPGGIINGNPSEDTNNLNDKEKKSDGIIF

[4] = target: T4, native PfPFD2 in P. falciparum 3D7 parasite lysate (Plasmodium falciparum 3D7 (endogenous in parasite lysate)) (UniProt Q8ILS7); assay: co-IP
T4 sequence: T3 sequence

Row | Substance | binding [1] | binding [2] | binding [3] | binding [4]
1 | Pfα-tubulin-I (protein used in ELISA and SPR) (from UniProt Q6ZLZ9 1-453) | binds | binds | binds | –
2 | native PfMSP-1 (merozoite surface protein 1) in P. falciparum 3D7 parasite lysate (from UniProt Q8I0U8 20-1694) | – | – | – | binds
3 | native α-tubulin-I in P. falciparum 3D7 parasite lysate (from UniProt Q6ZLZ9 1-453) | – | – | – | binds

Source: article doi:10.1101/2022.09.17.508354
